Assay results published in patent publication US20230220057A1.

Molecular target: insulin (Sigma)
Experiment: polyspecificity ELISA, insulin coated at 5 µg/mL

Binder	binding
Ab4 (antibody, human IgG1, V domains shown) VH: EVQLVQSGAEVKKPGATVKISCKVSGYTFITYWISWVQQAPGKGLEWMGAIDPSDSDARYSPSFQGRVTITADTSTDTAYMELSSLRSEDTAVYYCAKSDPGYSGYSLLYGFDSWGQGTLVTVSS VL: DVVMTQSPLSLPVTLGQPASISCRSSQSLVQRNGNTYLSWYQQRPGQSPRLLIYQVSNRYSGVPDRFSGSGSGTDFTLKISRVEAEDVGVYYCGQGAHLPLTFGQGTKVEIK	no binding (tested: 100 µg/mL)
Ab6 (antibody, human IgG1, V domains shown) VH: EVQLVQSGAEVKKPGATVKISCKVSGYTFITYWISWVQQAPGKGLEWMGAIDPSDSDARYSPSFQGRVTITADTSTDTAYMELSSLRSEDTAVYYCAKSDPGYSGYSLLYGFDSWGQGTLVTVSS VL: DVVMTQSPLSLPVTLGQPASISCRSSQSLVQRNGNTYLSWFQQRPGQPPRLLIYQVSNRYSGVPDRFSGSGSGTDFTLKISRVEAEDVGVYYCGQGAHLPLTFGQGTKVEIK	no binding (tested: 100 µg/mL)
Ab36 (antibody, human IgG1, V domains shown) VH: EVQLVQSGAEVKKPGATVKISCKVSGYTFITYWISWVQQAPGKGLEWMGAIDPSDSDARYSPSFQGRVTITADKSTDTAYMELSSLRSEDTAVYYCAKSDPGYSGYSLLYGFDSWGQGTLVTVSS VL: DVVMTQSPLSLPVTLGQPASISCRSSQSLVQRNGNTYLSWFQQRPGQPPRLLIYQVSNRYSGVPDRFSGSGSGTDFTLKISRVEAEDVGVYYCGQGAHLPLTFGQGTKVEIK	no binding (tested: 100 µg/mL)

Continued, values first:

binding	Binder
no binding (tested: 100 µg/mL)	Ab44 (antibody, human IgG1, V domains shown) VH: EVQLVQSGAEVKKPGESLKISCKGSGYSFITYWISWVRQMPGKGLEWMGAIDPSDSDARYSPSFQGQVTISADKSISTAYLQWSSLKASDTAMYYCAKSDPGYSGYSLLYGFDSWGQGTLVTVSS VL: DVVMTQSPLSLPVTLGQPASISCRSSQSLVQRNGNTYLSWYQQRPGQSPRLLIYQVSNRYSGVPDRFSGSGSGTDFTLKISRVEAEDVGVYYCGQGAHLPLTFGQGTKVEIK
no binding (tested: 100 µg/mL)	Ab54 (antibody, human IgG1, V domains shown) VH: EVQLVQSGAEVKKPGESLKISCKISGYSFITYWISWVRQMPGKGLEWMGAIDPSDSDARYSPSFQGQVTISADKSISTAYLQWSSLKASDTAMYYCAKSDPGYSGYSLLYGFDSWGQGTLVTVSS VL: DVVMTQSPLSLPVTLGQPASISCRSSQSLVQRNGNTYLSWYQQRPGQSPRLLIYQVSNRYSGVPDRFSGSGSGTDFTLKISRVEAEDVGVYYCGQGAHLPLTFGQGTKVEIK

No constants are given. Whether binding was seen depends on the method and setting.
